Measurements taken from patent publication US9567301B2, “Pyrrol-1-yl benzoic acid derivatives useful as myc inhibitors” (Whitehead Institute for Biomedical Research, priority 2012, dated 2017).

The chains behind the UniProt entries cited, without tags or fusion partners. Residues count along the entry.
UniProt P01106, 16-454: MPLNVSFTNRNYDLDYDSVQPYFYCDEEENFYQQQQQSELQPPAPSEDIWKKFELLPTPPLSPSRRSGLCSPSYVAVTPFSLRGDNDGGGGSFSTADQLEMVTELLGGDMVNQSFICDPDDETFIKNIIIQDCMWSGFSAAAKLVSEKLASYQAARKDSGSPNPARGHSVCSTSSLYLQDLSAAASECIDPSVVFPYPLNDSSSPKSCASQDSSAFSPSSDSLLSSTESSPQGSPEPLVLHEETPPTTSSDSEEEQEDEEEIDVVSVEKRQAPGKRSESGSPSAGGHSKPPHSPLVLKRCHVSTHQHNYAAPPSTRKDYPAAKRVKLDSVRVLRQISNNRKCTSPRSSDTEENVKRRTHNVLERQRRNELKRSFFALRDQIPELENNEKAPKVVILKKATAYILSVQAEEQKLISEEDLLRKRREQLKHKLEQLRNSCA

Tests used:
c-Myc/Max/Ebox DNA = c-Myc/Max/Ebox DNA (Homo sapiens, UniProt P01106); experiment: c-Myc/Max/Ebox DNA AlphaScreen assay; format: binding; details: read-out: Biochemical IC50, NA: inactive under assay conditions
H2171 cells = experiment: Cell viability assay (ATPlite), H2171; format: cell-based, human; details: read-out: H2171 EC50, three days, NA: inactive under assay conditions
MM1S cells = experiment: Cell viability assay (ATPlite), MM1S; format: cell-based, human; details: read-out: MM1S EC50, three days, NA: inactive under assay conditions

Cc1ccc(C)n1-c1cc(C(=O)N/N=C/C2CNc3ccc(C#N)cc32)ccc1C(=O)O (stereo not drawn)
IC50 (c-Myc/Max/Ebox DNA): 17.1 µM
EC50 (H2171 cells): 3.24 mM
EC50 (MM1S cells): 5.75 µM

The match of structure and compound is tentative.
